Source: patent US8686028B2, “Substituted benzfurochromenes and related compounds for the prevention and treatment of bone related disorders” (Council of Scientific & Industrial Research, priority 2008, dated 2014)
Entries after “also recorded” stand apart in the source; their conditions may differ. At least one structure is not confirmed: it was looked up by name or label, or the drawing left a doubt.

Legend:
Calvarial osteoblasts [1] = assay: Alkaline phosphatase (ALP) activity for osteoblast differentiation, calvarial osteoblasts; assay type: cell-based, rat; conditions: 48 h, 10^−16M to 10^−6M
Experimental: Neonatal rat calvarial cell cultures are prepared as described previously (Endocrinology 145:3451) using slight modification. Briefly, for primary osteoblast cell cultures, frontal and parietal bones from Sprague-Dawley rat neonates (1-3 day old) are digested in 0.1% collagenase/0.1% dispase in α-MEM to obtain 5 sequential digests. The second through fifth digests are combined and grown to confluence at 37° C. and 5% CO2 in air in α-MEM, supplemented with 10% fetal bovine serum (FBS), 2 mM glutamine, 100 U/ml penicillin-streptomycin, Non-essential amino acid solution and sodium pyruvate.
70 to 80% confluent Calvarial osteoblasts were treated with μM S006-1709 for 48 h in the presence of ascorbate and glycerophosphate. At the end of incubation period, total ALP activity was measured with a method using p-nitrophenylphosphate (PNPP) as substrate. The reaction mixture contained diethanolamine buffer (1 mol/L, pH 9.8), 0.5 mmol/L MgCl2.6H2O, and 10 mmol/L PNPP. ALP activity was measured by taking OD of the amount of colored product formed by the dephosphorylation of PNPP at 405 nm. […]
We then studied its effect in osteoblast differentiation in both calvarial and bone marrow osteoblasts. […] At the end of incubation period, total ALP activity was measured with the same method used previously using p-nitrophenylphosphate (PNPP) as substrate. […]

bone marrow osteoblasts = assay: Mineralization of bone marrow osteoblasts (Alizarin red extraction); assay type: cell-based; conditions: 10^−12M and 10^−10 M, 18 d bone marrow culture
Description: In addition, the effect of S006-1709 on mineralization of bone marrow osteoblasts was also studied.
In addition, the effect of S006-1710 on mineralization of bone marrow osteoblasts was also studied.

[2] = tested on: Immature 21 d old female SD rat; assay: In vivo efficacy, BMD in immature female SD rats; conditions: 10 mg/kg dose
Experimental: Immature 21 d old female SD rat model was chosen, animals were randomized into four groups and treated with a daily dose of test agent or vehicle for one month and autopsied on day 31.
[…], the animals were shifted to metabolic cage for acclaimatization for 24 h with food and water. Post acclaimatization animals were further left in metabolic cage for 24 h with water but no food. Blood and urine samples were collected after 24 h. Various biochemical parameters like serum calcium, serum phosphorus, serum osteocalcin, serum alkaline phosphatase (ALP) were evaluated. The animals were autopsied on day 31 and lumbar vertebrae, femur and tibia bones were isolated, cleaned and fixed in 70% ethanol in saline and stored at 4° C. until BMD measurement. Initial and final body weight and uterine weight at autopsy were recorded. BMD measurements of region of interest (lumbar: global, L1-L4; femur: global, neck and mid-shaft; tibia: global, proximal and tibio-fibula junction point) was performed using a bone densitometer (Model 4500 Elite, Hologic) fitted with commercially available software (QDR 4500 ACCLAIM series) for a fan-beam DXA system that permits determination of bone densitometry and measurement of body composition in small animals in vivo.

Calvarial osteoblasts [3] = assay: Mineralization of calvarial osteoblasts (Alizarin red extraction); assay type: cell-based, rat; conditions: 10^−12 M and 10^−10 M
[4] = tested on: ovariectomized immature female rats; assay: Estrogenicity, uterine fresh weight in ovariectomized immature female rats; assay type: in vivo, rat; conditions: 10 mg/Kg oral
Experimental: (§1) 21 day old immature female rats (25-30 grams) were ovariectomized and given 7 days post-operative rest. Thereafter they were treated orally with the test agent (10 mg/Kg body weight) or with vehicle or Ethynyl estradiol, the reference standard for three consecutive days. For anti-estrogenicity, other than the test chemical, ethynyl estradiol (0.01 mg/kg) was given at 15 minutes interval before the test chemical. Autopsy was done 24 h after last treatment and uterine fresh weight was taken.

3T3-L1 cells = assay: Anti-adipogenic effect (Oil Red O) in 3T3-L1 cells; assay type: cell-based, mouse; conditions: 3T3L1, at different concentrations (10^−10 M and 10^−12M tested)
Experimental: The best characterized model of adipogenesis in vitro is the 3T3-L1 cell line, a substrain of Swiss 3T3 mouse cell line. 3T3-L1 cells propagated under normal conditions have a fibroblastic phenotype. However, when treated with a combination of dexamethasone, isobutylmethylxanthine (IBMX or MIX) and insulin, 3T3-L1 cells adopt a rounded phenotype and within 5 days begin to accumulate lipids intracellularly in the form of lipid droplets.
3T3-L1 cells were plated in 48-well plates 40,000 cells/well. The cells were incubated in DMEM containing fetal calf serum for 2 days until the cells become confluent. The cells were then incubated with Adipogenesis initiation media which contains DMEM with 10% FCS, IBMX and dexamethasone for 48 hrs at 37° C., 5% CO2. After two days the media was replaced with Adipogenesis Progression media which contains DMEM/10% FCS and insulin for 48 hrs at 37° C., 5% CO2, Media was again changed gently to Adipogenesis maintenance media for 48 hrs at 37° C., 5% CO2. […] The dye was extracted and extracted dye was transferred to a 96-well plate and absorbance of extracted Oil Red O was measured in a plate reader at 490 nm.
Compounds S006-1709, S007-1351-53, S007-1495 and S007-1500 were tested in vitro in 3T3L1 cell line at two concentrations 10^−10 M and 10^−12M. […] The fixed cells were stained with Oil Red O. The dye was then extracted and quantified.

[5] = tested on: ovariectomized immature female rats; assay: Anti-estrogenicity, uterine fresh weight with ethynyl estradiol co-treatment; assay type: in vivo, rat; conditions: 10 mg/Kg oral plus ethynyl estradiol 0.01 mg/kg
Experimental: as §1

## Oc1ccc2c(c1)OCC1c3ccccc3OC21 (stereo not shown) [Compound S006-1709, 6a,11a-Dihydro-6H-benzo[4,5]furo[3,2-c]chromen-3-ol]
Calvarial osteoblasts [1]
  osteoblast ALP activity vs vehicle control: significant increase
Bone marrow osteoblasts
  mineralization of bone marrow osteoblasts (nascent calcium deposition, Alizarin red): significant increase
[2]
  BMD (in words): significant increase
Calvarial osteoblasts [3]
  mineralization of calvarial osteoblasts (nascent calcium deposition, Alizarin red): significant increase
[4]
  estrogenicity (in words): non-estrogenic; also recorded: devoid of any estrogenicity
3T3-L1 cells
  effect on adipogenesis: significantly inhibited adipogenesis
[5]
  anti-estrogenicity (in words): anti-estrogenic
